Test results as given in publication PMC4022642.
No constants are given. Whether binding was seen depends on the method and setting. Binding seen in cells or lysates may run through a third protein. For some assays here: Binding can be weak; no strength is given. Tags and fused reporters may be left off the sequences shown.

Columns and labels:
[1] = molecular target: T1, GST-human TRESK 256-271-Gln10His8 (human); assay: pull-down; GST-peptide-Gln10His8 fusions on Ni-NTA resin; mouse brain cytosol; SDS-PAGE; only the target purified
T1 sequence: LVLGRLSYSIISNLDE

[2] = molecular target: T2, TRESK-loop-His8 (amino acids 185-292 of mouse TRESK) (mouse) (UniProt Q6VV64); assay: pull-down; mouse TRESK-loop-His8 on Ni-NTA resin; mouse brain cytosol; no BSA blocking, cytosol not depleted on resin; SDS-PAGE, Coomassie; only the target purified
T2 sequence: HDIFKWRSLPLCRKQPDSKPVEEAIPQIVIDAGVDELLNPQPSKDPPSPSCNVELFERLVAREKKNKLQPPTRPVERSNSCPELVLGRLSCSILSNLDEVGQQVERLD

[3] = molecular target: T3, GST fusion of human TRESK cytoplasmic loop (amino acids 174-280) (human) (UniProt Q7Z418); assay: pull-down; GST fusion proteins on glutathione agarose; mouse brain cytosol, 1 h at 4°C in solution A without imidazole; wash with 1 M NaCl; SDS-PAGE or SDTHS-PAGE, Coomassie; only the target purified
T3 sequence: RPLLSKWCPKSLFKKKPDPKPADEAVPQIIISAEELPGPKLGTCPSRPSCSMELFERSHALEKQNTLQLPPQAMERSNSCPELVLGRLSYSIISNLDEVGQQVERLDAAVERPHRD

[4] = molecular target: T4, GST fusion of human TRESK fragment 174-231 (human) (UniProt Q7Z418); assay: as above
T4 sequence: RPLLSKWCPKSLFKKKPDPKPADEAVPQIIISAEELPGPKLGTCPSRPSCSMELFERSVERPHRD

[5] = molecular target: T5, GST fusion of human TRESK fragment 174-247 (human) (UniProt Q7Z418); assay: as above
T5 sequence: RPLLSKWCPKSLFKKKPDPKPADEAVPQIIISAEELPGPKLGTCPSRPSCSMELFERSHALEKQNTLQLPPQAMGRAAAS

[6] = molecular target: T6, GST fusion of human TRESK fragment 204-280 (human) (UniProt Q7Z418); assay: as above
T6 sequence: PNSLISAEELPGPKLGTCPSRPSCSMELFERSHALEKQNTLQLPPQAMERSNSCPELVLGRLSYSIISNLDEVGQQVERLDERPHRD

[7] = molecular target: T7, GST fusion of human TRESK fragment 218-247 (human) (UniProt Q7Z418); assay: as above
T7 sequence: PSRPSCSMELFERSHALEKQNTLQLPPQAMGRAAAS

[8] = molecular target: T8, GST fusion of human TRESK fragment 232-280 (human) (UniProt Q7Z418); assay: as above
T8 sequence: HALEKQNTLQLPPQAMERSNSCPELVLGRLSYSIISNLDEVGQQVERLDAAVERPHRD

[9] = molecular target: T9, GST fusion of human TRESK fragment 247-280 (human) (UniProt Q7Z418); assay: as above
T9 sequence: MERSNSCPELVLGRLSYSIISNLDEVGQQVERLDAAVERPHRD

[10] = molecular target: T10, GST fusion of human TRESK fragment 256-267 (human); assay: as above
T10 sequence: LVLGRLSYSIIS

[11] = molecular target: T11, GST fusion of human TRESK fragment 256-271 (human); assay: as above
T11 sequence: LVLGRLSYSIISNLDE

[12] = molecular target: T12, GST fusion of human TRESK fragment 256-275 (human) (UniProt Q7Z418); assay: as above
T12 sequence: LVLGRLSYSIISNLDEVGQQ

[13] = molecular target: T13, GST fusion of human TRESK fragment 256-280 (human) (UniProt Q7Z418); assay: as above
T13 sequence: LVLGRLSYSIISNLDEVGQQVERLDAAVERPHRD

[14] = molecular target: T14, human TRESK-loop-His8 (amino acids 174-280) (human) (UniProt Q7Z418); assay: pull-down; human TRESK-loop-His8 on Ni-NTA resin, with or without PKA phosphorylation, preloaded with E. coli supernatant holding untagged 14-3-3η (not removed), then mouse brain cytosol; solution A with 50 mM NaF, PNPP, leupeptin, orthovanadate, cyclosporin A and FK506; SDS-PAGE; only the target purified
T14 sequence: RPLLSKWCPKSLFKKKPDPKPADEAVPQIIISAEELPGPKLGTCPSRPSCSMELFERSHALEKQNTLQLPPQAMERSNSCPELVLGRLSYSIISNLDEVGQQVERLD

- binding [1]: binds
- binding [2]: binds
- binding [3]: binds
- binding [4]: binds
- binding [5]: binds
- binding [6]: binds
- binding [7]: no binding
- binding [8]: binds
- binding [9]: binds
- binding [10]: binds
- binding [11]: binds
- binding [12]: binds
- binding [13]: binds
- binding [14]: binds
Substance: tubulin (mouse brain cytosol) (complex)
